Reference: patent publication US20030162221A1
Results are given in words; binding and its absence hold for the method and conditions named. In cells and extracts the contact can be indirect. Some results given as binding are weak or reduced against the parent protein; the word gives no strength. Tags and fused reporters may be left off the sequences shown.

Tests used:
[1] = molecular target: T1, Mec3 (Saccharomyces cerevisiae) (UniProt Q02574); assay: anti-FLAG co-IP, LC-MS/MS
T1 sequence (looked up): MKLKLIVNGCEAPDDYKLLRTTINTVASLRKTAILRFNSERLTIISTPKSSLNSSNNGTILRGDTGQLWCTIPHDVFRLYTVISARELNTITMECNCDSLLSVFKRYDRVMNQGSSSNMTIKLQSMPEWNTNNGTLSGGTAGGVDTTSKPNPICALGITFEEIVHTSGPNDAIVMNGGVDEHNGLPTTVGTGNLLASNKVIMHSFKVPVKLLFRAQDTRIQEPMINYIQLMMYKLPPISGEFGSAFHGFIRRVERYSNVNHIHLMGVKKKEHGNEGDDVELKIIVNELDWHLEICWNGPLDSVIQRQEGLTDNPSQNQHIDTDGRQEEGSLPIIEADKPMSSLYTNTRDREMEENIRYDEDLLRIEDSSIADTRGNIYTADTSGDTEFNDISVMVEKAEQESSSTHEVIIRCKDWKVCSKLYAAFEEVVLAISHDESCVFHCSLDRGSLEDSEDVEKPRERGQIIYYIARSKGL

[2] = molecular target: T2, Rfc4 (Saccharomyces cerevisiae) (UniProt P40339); assay: anti-FLAG co-IP, LC-MS/MS
T2 sequence (looked up): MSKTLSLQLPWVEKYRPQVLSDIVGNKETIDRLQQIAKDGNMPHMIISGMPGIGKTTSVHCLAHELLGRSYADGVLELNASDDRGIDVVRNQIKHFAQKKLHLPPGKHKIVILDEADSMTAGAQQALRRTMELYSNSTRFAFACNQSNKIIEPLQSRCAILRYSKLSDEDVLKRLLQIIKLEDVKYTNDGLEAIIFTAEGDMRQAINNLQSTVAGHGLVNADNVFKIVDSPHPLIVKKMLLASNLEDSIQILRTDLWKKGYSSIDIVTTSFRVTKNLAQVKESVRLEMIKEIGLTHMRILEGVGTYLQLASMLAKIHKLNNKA

[3] = molecular target: T1, Mec3 (Saccharomyces cerevisiae); assay: anti-FLAG co-IP, LC-MS/MS; pair by Table 2
[4] = molecular target: T3, Dun1 (Saccharomyces cerevisiae) (UniProt P39009); assay: anti-FLAG co-IP, LC-MS/MS
T3 sequence (looked up): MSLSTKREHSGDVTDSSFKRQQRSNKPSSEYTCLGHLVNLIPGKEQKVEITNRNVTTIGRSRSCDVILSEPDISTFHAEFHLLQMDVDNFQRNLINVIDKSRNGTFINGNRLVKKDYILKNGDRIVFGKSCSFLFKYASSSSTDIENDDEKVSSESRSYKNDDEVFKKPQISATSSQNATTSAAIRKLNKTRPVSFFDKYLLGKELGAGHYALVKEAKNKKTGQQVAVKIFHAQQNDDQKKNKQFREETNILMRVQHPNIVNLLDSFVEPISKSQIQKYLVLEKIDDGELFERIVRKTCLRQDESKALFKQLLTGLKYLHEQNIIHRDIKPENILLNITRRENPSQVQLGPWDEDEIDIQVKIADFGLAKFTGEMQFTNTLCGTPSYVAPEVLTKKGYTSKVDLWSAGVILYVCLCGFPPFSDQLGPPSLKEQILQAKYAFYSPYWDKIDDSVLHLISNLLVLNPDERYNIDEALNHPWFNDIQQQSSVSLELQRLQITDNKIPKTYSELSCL

[5] = molecular target: T4, Rfc2 (Saccharomyces cerevisiae) (UniProt P40348); assay: anti-FLAG co-IP, LC-MS/MS
T4 sequence (looked up): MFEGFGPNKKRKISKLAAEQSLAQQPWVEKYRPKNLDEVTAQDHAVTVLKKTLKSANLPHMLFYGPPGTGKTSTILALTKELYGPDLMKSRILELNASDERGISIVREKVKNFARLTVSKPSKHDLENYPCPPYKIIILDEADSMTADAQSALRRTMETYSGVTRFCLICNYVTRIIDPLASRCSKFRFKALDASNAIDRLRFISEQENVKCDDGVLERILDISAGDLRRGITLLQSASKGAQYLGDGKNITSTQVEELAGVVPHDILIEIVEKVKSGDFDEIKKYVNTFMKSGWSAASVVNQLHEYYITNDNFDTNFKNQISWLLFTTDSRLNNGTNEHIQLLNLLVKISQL

[6] = molecular target: T5, Rfc3 (Saccharomyces cerevisiae) (UniProt P38629); assay: anti-FLAG co-IP, LC-MS/MS
T5 sequence (looked up): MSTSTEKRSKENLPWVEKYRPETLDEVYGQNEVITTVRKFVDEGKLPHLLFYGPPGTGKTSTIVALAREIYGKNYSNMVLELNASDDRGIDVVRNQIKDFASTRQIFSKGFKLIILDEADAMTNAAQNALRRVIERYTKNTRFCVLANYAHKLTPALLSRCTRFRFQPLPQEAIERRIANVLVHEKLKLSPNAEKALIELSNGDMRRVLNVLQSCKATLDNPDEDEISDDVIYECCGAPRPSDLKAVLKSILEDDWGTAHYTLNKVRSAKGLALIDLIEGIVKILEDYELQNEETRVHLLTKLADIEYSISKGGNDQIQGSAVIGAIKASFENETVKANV

[7] = molecular target: T6, Rfc5 (Saccharomyces cerevisiae) (UniProt P38251); assay: anti-FLAG co-IP, LC-MS/MS
T6 sequence (looked up): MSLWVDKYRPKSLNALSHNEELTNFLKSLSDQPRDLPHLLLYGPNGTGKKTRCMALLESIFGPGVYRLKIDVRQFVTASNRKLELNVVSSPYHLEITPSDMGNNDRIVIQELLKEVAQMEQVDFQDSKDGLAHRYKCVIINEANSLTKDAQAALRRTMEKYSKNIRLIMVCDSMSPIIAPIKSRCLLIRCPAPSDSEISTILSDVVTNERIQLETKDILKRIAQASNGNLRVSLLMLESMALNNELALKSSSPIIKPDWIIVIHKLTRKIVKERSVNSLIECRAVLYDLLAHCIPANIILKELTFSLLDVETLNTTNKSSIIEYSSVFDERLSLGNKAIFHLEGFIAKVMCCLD

[8] = molecular target: T4, Rfc2 (Saccharomyces cerevisiae); assay: anti-FLAG co-IP, LC-MS/MS; pair by Table 2
[9] = molecular target: T5, Rfc3 (Saccharomyces cerevisiae); assay: anti-FLAG co-IP, LC-MS/MS; pair by Table 2
[10] = molecular target: T6, Rfc5 (Saccharomyces cerevisiae); assay: anti-FLAG co-IP, LC-MS/MS; pair by Table 2
[11] = molecular target: T3, Dun1 (Saccharomyces cerevisiae); assay: anti-FLAG co-IP, LC-MS/MS; Dun1 was the prey by Table 2
[12] = molecular target: T7, Rad17 (Saccharomyces cerevisiae) (UniProt P48581); assay: anti-FLAG co-IP, LC-MS/MS
T7 sequence (looked up): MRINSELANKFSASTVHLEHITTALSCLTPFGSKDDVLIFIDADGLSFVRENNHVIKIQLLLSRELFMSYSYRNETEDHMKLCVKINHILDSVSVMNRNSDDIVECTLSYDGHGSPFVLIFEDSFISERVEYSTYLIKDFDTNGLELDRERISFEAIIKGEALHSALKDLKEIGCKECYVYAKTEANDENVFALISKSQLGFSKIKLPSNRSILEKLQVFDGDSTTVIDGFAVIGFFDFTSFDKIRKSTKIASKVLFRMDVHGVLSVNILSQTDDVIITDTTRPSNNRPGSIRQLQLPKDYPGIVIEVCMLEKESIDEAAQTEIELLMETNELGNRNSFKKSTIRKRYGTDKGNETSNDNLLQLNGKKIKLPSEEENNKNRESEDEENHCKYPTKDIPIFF

[13] = molecular target: T7, Rad17 (Saccharomyces cerevisiae); assay: anti-FLAG co-IP, LC-MS/MS; pair by Table 2
[14] = molecular target: T8, Ubc13 (Saccharomyces cerevisiae) (UniProt P52490); assay: anti-FLAG co-IP, LC-MS/MS
T8 sequence (looked up): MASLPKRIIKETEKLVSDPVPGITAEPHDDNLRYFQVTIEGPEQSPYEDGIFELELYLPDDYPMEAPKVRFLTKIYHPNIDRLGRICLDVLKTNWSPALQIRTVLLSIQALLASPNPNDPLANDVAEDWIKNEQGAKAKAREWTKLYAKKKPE

[15] = molecular target: T8, Ubc13 (Saccharomyces cerevisiae); assay: anti-FLAG co-IP, LC-MS/MS; pair by Table 2

Measured: binding

B1: Ddc1 (protein, Saccharomyces cerevisiae, UniProt Q08949 1-612, looked up)
chain: MSFKATITESGKQNIWFRAIYVLSTIQDDIKITVTTNELIAWSMNETDTTLCQVRFQKSFFEEYEFKPHEIVFGENGVQVIEDTYGNSHKLYSFRVNGRHLTTISRKPDGDGIKSFTIAVNNTSTCPESLANRLIVVIEMDSLIVKEYCPQFQPIKYDPIIINLKYKRRFLDVFGTAASDRNPQEPLDPKLLDVFTNTERELTSALFNEEVESDIRKRNQLTAADEINYICCNSTLLKNFLDNCNVNVTDEVKLEINVHRLSITAFTKAVYGKNNDLLRNALSMSNTISTLDLEHYCLFTTIEDEKQDKRSHSKRREHMKSIIFKLKDFKNFITIGPSWKTTQDGNDNISLWFCHPGDPILMQMQKPGVKLELVEVTDSNINDDILEGKFIKTAISGSKEEAGLKDNKESCESPLKSKTALKRENLPHSVAGTRNSPLKVSYLTPDNGSTVAKTYRNNTARKLFVEEQSQSTNYEQDKRFRQASSVHMNMNREQSFDIGTTHEVACPRNESNSLKRSIADICNETEDPTQQSTFAKRADTTVTWGKALPAADDEVSCSNIDRKGMLKKEKLKHMQGLLNSQNDTSNHKKQDNKEMEDGLGLTQVEKPRGIFD
binds: [1] | [2] | [3]

B2: Rad24 (protein, Saccharomyces cerevisiae, UniProt P32641 1-659, looked up)
chain: MDSTNLNKRPLLQYSLSSLGSQITKWSSSRPTSPVRKARSTENDFLSKQDTSSILPSINDDGGEQWYEKFKPNCLEQVAIHKRKLKDVQEALDAMFLPNAKHRILLLSGPSGCSKSTVIKELSKILVPKYRQNSNGTSFRSTPNEHKVTEFRGDCIVNDLPQMESFSEFLKGARYLVMSNLSLILIEDLPNVFHIDTRRRFQQLILQWLYSSEPLLPPLVICITECEIPENDNNYRKFGIDYTFSAETIMNKEILMHPRLKRIKFNPINSTLLKKHLKFICVQNMKMLKEKNKWNKRQEVIDYIAQETGDIRSAITTLQFWATSSGSLPISTRESTISYFHAIGKVIHGSHSTNNDNEMINNLFENSNNLLSKEDFKLGILENYNTFNKGEFSISDASSIVDCLSECDNMNGLPESNEYGLREVRKTFRNISKQGHNHGTVYFPREWKVRKLQNSFKVQAEDWLNVSLYKYNAVHSFRNITLEFGYYAPLIRKCQSYKKKYILYYLKNLPSGSSGPKQTMDKFSDIMKVENGIDVVDRIGGPIEALSVEDGLAPLMDNDSNNCDHLEDQKKERDRRLRMLIDQYERNVMMANDDLEDEETSFNDDPIVDSDSDNSNNIGNETFGRSDEDESLCEILSQRQPRKAPVISESLSDSDLEIL
binds: [4] | [5] | [6] | [7] | [8] | [9] | [10] | [11]

B3: Mec3 (protein, Saccharomyces cerevisiae, UniProt Q02574 1-474, looked up)
chain: T1 sequence (looked up)
binds: [12] | [13]

B4: Mms2 (protein, Saccharomyces cerevisiae, UniProt P53152 1-137, looked up)
chain: MSKVPRNFRLLEELEKGEKGFGPESCSYGLADSDDITMTKWNGTILGPPHSNHENRIYSLSIDCGPNYPDSPPKVTFISKINLPCVNPTTGEVQTDFHTLRDWKRAYTMETLLLDLRKEMATPANKKLRQPKEGETF
binds: [14] | [15]
